PubChem BioAssay AID1487 (National Center for Advancing Translational Sciences (NCATS), 2009)
This is one part of the list. Further columns of the screen follow, without active or inactive calls. Compounds called inactive in the main read-out are mostly missing here. Potencies come from curve fits of mixed quality, noted in brackets.

Assay: qHTS Assay for Modulators of Lamin A Splicing
Details: HeLa LMNA splicing GFP/RFP minigene ratio, 48 h
How it was run: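 S3 HeLa cells stably expressing lamin A-EGFP splicing minigene plus DsRed2, 600 cells/well, 48 h compound exposure at 37C. Laser-scanning cytometry; analysed as GFP (500-530 nm)/RFP (575-640 nm) total intensity ratio; 0.5% DMSO vehicle.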

[1] = measured here: GFP splicing reporter channel
[2] = measured here: RFP viability control channel

SMILES | AC50 [1] | AC50 [2]
Cc1ccc(C(=O)N2CCN3C(=O)c4ccccc4C23c2ccc(Cl)cc2)cc1 (stereo not given) | 12.6 µM [falling, single point] | 14.1 µM [falling, partial curve]
COc1cccc(CC(=O)Nc2ccc(S(=O)(=O)Nc3nc(C)cc(C)n3)cc2)c1 | – | 0.0251 µM [falling, full curve, poor fit]
COc1cc(/C=C/C(=O)OCC(=O)N2CCC(Cc3ccccc3)CC2)ccc1O | – | 12.6 µM [rising, single point]
O=C(C(c1ccccc1)c1ccccc1)N1CCN(CCN2C(=O)c3cccc4cccc(c34)C2=O)CC1 | – | 17.8 µM [rising, single point]
COc1ccc(O[C@H]2C=C[C@@H](c3ccccc3)O[C@@H]2COC(=O)CC/C(C)=N/OC[C@@H](O)[C@H]2O[C@@H]3OC(C)(C)O[C@@H]3[C@H]2O)cc1 | – | 17.8 µM [rising, single point]
COc1ccc2c(c1)c1nnc(SC)nc1n2C | – | 22.4 µM [rising, partial curve, poor fit]
CCCCOc1cc(C)nc(NCc2ccccc2)n1 | 15.8 µM [rising, partial curve, poor fit] | 35.5 µM [rising, single point]
Cc1ccc(/C=C/c2nc3ccccc3c(=O)n2CCc2ccccc2)cc1 | – | 17.8 µM [rising, partial curve]
O=C(NCc1ccccc1)c1cc(=O)c2ccccc2o1 | – | 0.0501 µM [falling, full curve, poor fit]
Cc1ccc(/C=N/NC(=O)c2csc3c2CCCC3)cc1 | 35.5 µM [rising, single point] | 14.1 µM [rising, partial curve]
CCSC1=C(C#N)C(c2ccc(Cl)cc2)C2=C(CCCC2=O)N1 (stereo not given) | – | 11.2 µM [rising, single point]
CCOC(=O)c1c(C)oc2nc(C)nc(N3CCN(c4cccc(C(F)(F)F)c4)CC3)c12 | – | 12.6 µM [rising, partial curve, poor fit]
CCOC(=O)c1cccc(NC(=O)CN2CCN(c3ccc(OC)cc3)CC2)c1 | – | 31.6 µM [rising, single point]
CCn1ncc([N+](=O)[O-])c1C(=O)Nc1ccc(C(=O)N2CCCCC2)cc1 | 11.2 µM [rising, partial curve] | 15.8 µM [rising, partial curve]
Cc1ccc(SCCC(=O)Nc2cc(C)on2)cc1 | 0.2 µM [rising, partial curve] | 0.891 µM [rising, partial curve]
O=C(NCC(c1ccc2c(c1)OCO2)N1CCN(c2ccccc2F)CC1)c1ccccc1F (stereo not given) | 35.5 µM [falling, single point] | –
CC(=O)OCC(=O)C1=CCC2C3CCC4=CC(=O)C=CC4(C)C3(F)C(OC(C)=O)CC12C (stereo not given) | – | 0.0158 µM [falling, full curve, poor fit]
CC(C)n1c(-c2ccco2)csc1=Nc1cccnc1 | – | 11.2 µM [rising, partial curve]

SMILES | AC50 [1] | AC50 [2]
COCCn1c(CNc2ccc(F)cc2)nnc1SCC(=O)Nc1ccc(OC)cc1OC | 8.91 µM [rising, partial curve, poor fit] | 12.6 µM [rising, partial curve]
Cc1ccc2[nH]c(CSc3nnc(NC(=O)COc4ccc(F)cc4)s3)cc(=O)c2c1 | 0.0224 µM [rising, full curve, poor fit] | –
Cc1cc(C(=O)CN2C(=O)C3CC=CCC3C2=O)c(C)n1-c1ccccc1 (stereo not given) | 31.6 µM [rising, single point] | 31.6 µM [rising, single point]
O=C(NCc1cccnc1)c1cc(Sc2ccccc2Cl)nc2ccccc12 | – | 12.6 µM [rising, partial curve]
CC(C)(C)OC(=O)NCCCCCc1nnc(SCC(=O)Nc2cccc(Cl)c2)o1 | 8.91 µM [rising, partial curve] | 3.98 µM [rising, partial curve]
COc1ccccc1CCNC(=O)C(=O)NCC1OCCN1S(=O)(=O)c1ccc(Br)cc1 (stereo not given) | – | 10 µM [rising, partial curve]
O=C(NN=C1CCCCCCC1)c1ccc2ccccc2n1 | – | 0.708 µM [falling, full curve, poor fit]
O=C(CSc1nnnn1-c1ccc2c(c1)OCCO2)N1CCc2ccccc21 | – | 20 µM [rising, single point]
COc1ccc(CCNC(=O)CSc2ccccc2)cc1OC | 8.91 µM [rising, partial curve, poor fit] | –
Cc1c(C(=O)NCc2ccc(OC(C)C)cc2)sc2ncnc(N(C)C3CCCCC3)c12 | – | 35.5 µM [falling, partial curve, poor fit]
CC1(C)CC2CC(C)(CN2S(=O)(=O)c2ccc(C(=O)Nc3ccc(S(=O)(=O)N4CCOCC4)cc3)cc2)C1 (stereo not given) | – | 2 µM [rising, full curve]
COC(=O)c1ccc(NC(=O)Nc2ccc(F)cc2F)cc1 | – | 7.08 µM [rising, full curve, poor fit]
CC#C[C@]1(O)CC[C@H]2[C@@H]3CCC4=CC(=O)CCC4=C3[C@@H](c3ccc(N(C)C)cc3)C[C@@]21C | 12.6 µM [rising, partial curve] | 17.8 µM [rising, partial curve]
COCCN(CCOC)c1nc(S(=O)(=O)c2ccc(C)cc2)c(Cl)s1 | – | 31.6 µM [rising, single point]
O=C(Nc1ccc(Cl)cc1C(F)(F)F)C(Sc1nnc(-c2cccs2)o1)c1ccccc1 (stereo not given) | – | 1.78 µM [rising, full curve, poor fit]
Cc1c(/C=N/n2cnnc2)c2ccccc2n1CCOc1ccccc1 | 11.2 µM [rising, partial curve] | –
O=S(=O)(c1ccc(Oc2ccc(Br)cc2)cc1)N1CCOCC1 | – | 14.1 µM [rising, partial curve]
CCOP(=O)(OCC)/C(C#N)=C/c1ccc([N+](=O)[O-])cc1 | 0.00398 µM [rising, full curve, poor fit] | –

2 of these compounds in another layout:
SMILES	AC50 [1]	AC50 [2]
Cc1cc(C(=O)CN2C(=O)C3CC=CCC3C2=O)c(C)n1-c1ccccc1 (stereo not given)	31.6 µM [rising, single point]	31.6 µM [rising, single point]
O=C(NCc1cccnc1)c1cc(Sc2ccccc2Cl)nc2ccccc12	–	12.6 µM [rising, partial curve]
